Measurements as given in the supplement of paper PMC10849652.
This is one part of the list.

Protein sequences, listed by entry. Tags and fused reporters are not part of them. Lines headed by an entry give the natural chain unless they say otherwise; changes in a name come on top.
UniProt O14880: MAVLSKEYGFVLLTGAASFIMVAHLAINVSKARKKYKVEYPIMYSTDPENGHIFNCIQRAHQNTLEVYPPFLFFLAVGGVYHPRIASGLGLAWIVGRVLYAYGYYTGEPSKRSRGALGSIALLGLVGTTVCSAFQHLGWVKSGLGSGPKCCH
UniProt Q9ULK4: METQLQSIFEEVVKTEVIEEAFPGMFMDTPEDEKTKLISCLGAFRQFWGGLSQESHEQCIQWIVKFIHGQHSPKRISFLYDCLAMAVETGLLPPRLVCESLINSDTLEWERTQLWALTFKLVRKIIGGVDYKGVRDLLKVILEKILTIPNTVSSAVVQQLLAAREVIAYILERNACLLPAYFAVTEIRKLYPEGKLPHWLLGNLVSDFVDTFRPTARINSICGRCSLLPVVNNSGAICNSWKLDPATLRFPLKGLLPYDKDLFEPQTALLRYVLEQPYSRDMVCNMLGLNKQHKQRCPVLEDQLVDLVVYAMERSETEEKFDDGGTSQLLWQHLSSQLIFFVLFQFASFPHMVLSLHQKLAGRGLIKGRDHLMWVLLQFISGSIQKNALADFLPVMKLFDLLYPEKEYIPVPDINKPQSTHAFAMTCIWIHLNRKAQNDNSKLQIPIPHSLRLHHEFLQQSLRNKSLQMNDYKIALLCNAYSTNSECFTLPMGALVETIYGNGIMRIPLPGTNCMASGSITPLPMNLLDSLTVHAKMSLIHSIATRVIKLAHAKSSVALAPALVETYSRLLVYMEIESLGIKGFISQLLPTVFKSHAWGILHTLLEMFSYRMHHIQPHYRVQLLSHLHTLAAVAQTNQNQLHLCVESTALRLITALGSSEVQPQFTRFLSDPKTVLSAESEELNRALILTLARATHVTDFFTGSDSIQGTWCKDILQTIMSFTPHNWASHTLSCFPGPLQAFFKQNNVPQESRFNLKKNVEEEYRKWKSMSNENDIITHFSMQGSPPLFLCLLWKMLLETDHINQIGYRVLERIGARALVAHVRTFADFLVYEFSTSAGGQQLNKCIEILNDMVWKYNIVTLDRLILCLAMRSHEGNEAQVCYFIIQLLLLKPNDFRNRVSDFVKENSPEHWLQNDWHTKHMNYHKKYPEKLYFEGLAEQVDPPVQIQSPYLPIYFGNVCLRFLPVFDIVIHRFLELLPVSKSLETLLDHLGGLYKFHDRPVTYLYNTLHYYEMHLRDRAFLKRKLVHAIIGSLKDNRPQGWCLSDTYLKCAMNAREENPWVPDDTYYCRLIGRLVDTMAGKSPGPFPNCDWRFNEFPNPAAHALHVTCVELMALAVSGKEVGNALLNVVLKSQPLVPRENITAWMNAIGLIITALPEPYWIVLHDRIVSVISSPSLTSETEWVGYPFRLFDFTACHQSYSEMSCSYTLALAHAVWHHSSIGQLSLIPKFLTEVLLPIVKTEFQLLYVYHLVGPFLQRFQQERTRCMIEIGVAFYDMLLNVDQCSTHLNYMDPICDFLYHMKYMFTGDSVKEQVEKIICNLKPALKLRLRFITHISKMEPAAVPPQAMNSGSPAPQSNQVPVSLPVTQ
UniProt P48163: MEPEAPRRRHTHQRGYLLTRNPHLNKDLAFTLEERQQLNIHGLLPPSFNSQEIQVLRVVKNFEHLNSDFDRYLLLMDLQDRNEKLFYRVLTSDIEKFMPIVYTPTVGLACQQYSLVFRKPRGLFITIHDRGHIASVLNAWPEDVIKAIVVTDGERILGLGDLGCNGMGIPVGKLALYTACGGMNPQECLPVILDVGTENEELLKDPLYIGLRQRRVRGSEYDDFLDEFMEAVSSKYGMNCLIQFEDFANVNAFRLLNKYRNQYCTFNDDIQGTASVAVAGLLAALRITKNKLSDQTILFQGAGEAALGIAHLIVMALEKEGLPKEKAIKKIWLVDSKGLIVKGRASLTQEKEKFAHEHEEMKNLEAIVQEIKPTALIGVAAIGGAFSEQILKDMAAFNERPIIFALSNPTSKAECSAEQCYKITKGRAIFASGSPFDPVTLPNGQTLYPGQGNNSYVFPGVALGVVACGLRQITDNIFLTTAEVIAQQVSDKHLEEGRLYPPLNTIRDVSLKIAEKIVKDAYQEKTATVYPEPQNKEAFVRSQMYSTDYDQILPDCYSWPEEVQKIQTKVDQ
UniProt Q14728: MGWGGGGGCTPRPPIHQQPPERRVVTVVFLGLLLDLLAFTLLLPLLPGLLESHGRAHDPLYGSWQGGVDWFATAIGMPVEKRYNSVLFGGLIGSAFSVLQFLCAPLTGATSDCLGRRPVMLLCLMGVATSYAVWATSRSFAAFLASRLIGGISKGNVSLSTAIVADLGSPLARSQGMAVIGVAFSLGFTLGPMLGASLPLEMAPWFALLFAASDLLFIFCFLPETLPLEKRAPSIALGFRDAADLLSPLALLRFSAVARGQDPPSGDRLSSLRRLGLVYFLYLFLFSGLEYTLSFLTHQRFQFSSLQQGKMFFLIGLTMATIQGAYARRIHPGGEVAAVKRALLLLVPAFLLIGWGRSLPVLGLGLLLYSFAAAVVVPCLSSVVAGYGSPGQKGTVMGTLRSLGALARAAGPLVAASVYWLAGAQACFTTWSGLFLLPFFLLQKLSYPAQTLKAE
UniProt Q9NPJ6: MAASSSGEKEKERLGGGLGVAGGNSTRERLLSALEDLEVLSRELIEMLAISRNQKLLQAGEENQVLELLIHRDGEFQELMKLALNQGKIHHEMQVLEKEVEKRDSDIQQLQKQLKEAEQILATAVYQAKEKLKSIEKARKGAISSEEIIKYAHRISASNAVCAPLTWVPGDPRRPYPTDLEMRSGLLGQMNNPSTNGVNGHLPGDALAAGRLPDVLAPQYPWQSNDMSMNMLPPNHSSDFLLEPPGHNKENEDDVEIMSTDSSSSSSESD
UniProt Q8NE86: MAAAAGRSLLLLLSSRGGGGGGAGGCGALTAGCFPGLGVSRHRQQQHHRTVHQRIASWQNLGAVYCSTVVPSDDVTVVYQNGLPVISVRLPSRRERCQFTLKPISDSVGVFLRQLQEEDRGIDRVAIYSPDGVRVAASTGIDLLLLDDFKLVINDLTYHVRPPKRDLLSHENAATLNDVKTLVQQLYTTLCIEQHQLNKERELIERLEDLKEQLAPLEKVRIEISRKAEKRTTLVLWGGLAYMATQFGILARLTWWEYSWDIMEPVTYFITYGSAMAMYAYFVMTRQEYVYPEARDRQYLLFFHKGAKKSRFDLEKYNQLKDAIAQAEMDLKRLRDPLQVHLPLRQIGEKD
UniProt O75448: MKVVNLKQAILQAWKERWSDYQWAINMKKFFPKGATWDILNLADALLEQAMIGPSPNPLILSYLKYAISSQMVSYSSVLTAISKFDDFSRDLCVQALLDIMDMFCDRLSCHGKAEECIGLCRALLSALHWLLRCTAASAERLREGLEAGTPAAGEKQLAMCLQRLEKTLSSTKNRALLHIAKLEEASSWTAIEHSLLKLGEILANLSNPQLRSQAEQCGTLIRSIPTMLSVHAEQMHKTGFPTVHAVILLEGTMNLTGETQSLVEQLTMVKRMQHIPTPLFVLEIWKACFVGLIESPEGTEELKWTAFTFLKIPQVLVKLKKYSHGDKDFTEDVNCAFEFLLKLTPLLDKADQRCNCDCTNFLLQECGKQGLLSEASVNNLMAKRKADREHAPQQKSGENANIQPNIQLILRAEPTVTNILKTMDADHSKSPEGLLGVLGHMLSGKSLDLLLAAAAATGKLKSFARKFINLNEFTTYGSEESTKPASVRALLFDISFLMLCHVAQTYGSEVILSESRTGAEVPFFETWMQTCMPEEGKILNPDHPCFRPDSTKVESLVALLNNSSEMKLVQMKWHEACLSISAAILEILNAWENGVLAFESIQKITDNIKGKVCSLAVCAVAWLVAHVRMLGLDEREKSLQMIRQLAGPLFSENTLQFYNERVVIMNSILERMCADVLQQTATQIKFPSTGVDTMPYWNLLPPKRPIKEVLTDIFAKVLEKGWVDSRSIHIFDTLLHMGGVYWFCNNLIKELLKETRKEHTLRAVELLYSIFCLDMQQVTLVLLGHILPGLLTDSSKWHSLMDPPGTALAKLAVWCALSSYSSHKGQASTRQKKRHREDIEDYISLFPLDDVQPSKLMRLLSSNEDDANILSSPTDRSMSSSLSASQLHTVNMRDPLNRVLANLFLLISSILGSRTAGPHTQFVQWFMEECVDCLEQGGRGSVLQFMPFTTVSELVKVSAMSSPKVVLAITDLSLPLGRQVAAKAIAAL
UniProt Q6ZSS7: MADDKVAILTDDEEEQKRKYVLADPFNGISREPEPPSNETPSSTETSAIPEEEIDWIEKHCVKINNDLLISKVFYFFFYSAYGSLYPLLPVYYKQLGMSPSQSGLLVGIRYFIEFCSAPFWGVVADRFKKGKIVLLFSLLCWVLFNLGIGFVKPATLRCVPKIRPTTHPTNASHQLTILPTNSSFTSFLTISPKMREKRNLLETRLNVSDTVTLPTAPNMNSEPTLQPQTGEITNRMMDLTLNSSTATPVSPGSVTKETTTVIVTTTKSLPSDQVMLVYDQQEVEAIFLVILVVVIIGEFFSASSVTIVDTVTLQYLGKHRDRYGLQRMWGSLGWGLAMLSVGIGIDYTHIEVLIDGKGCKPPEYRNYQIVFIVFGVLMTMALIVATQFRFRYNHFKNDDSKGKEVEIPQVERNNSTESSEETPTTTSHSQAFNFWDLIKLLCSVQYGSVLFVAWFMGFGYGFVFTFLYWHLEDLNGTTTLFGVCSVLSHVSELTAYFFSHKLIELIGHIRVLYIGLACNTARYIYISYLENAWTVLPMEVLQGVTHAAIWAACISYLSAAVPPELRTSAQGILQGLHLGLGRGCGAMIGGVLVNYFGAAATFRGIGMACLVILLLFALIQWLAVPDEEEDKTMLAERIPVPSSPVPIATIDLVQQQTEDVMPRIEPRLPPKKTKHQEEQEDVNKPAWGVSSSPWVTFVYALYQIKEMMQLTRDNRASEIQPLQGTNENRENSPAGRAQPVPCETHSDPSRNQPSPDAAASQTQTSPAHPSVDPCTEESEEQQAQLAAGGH
UniProt P43121, whole entry, looked up: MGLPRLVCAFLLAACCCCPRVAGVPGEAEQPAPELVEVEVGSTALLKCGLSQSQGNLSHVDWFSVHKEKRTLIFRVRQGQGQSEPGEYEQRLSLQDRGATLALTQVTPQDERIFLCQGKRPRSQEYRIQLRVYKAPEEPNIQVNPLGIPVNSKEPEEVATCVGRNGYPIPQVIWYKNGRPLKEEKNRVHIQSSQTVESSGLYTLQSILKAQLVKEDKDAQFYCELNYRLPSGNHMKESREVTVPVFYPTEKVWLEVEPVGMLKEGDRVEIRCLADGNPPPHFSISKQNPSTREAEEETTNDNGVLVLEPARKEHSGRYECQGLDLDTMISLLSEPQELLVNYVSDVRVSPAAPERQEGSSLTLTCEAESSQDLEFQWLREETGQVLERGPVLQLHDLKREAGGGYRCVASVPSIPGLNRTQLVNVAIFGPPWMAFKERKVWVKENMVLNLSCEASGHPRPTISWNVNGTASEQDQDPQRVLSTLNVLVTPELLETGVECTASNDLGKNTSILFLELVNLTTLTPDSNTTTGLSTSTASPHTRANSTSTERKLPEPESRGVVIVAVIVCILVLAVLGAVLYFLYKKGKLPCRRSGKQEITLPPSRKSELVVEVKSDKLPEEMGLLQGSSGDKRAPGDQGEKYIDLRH

Experiments:
Assay in all cases: log2 fold change, soluble protein after heating vs DMSO (PISA); higher = thermal stabilisation; K562 cells, 10 uM, 30 min; active = over 0.2 and 3.5 SD of the protein, either way, in both replicates (recomputed)
[1] = compound: C1=CC=C(C=C1)[C@H](COC2=CC3=C(C=C2)NC(=O)N3)NC(=O)C4=CC=CN(C4=O)CC5=CC(=C(C=C5)F)F
Outline: (§1)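 Quantification of soluble protein used TMTpro 16plex LC-MS/MS, with channel sums equalised. Samples were the supernatant after 21,000xg for 90 min of pooled aliquots from K562 cells (2×10^6 cells/mL) treated with 10 μM compound for 30 min, heated for 3 min over 48°C-58°C, and extracted in PBS with 0.5% NP-40 at 4°C. Values, from duplicates, describe thermal stability against control samples on a log2 fold-change scale.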

[2] = compound: CC1=C(SC2=C1C(=N[C@H](C3=NN=C(N32)C)CC(=O)N)C4=CC=C(C=C4)Cl)C
Outline: as §1

[3] = compound: CC1=C2C(=CC=C1)N=C(N(C2=O)C3=CC=CC=C3C)CN4C=NC5=C(N=CN=C54)N
Outline: as §1

[4] = compound: Cc1sc2c(c1C)C(c1ccc(Cl)cc1)=N[C@@H](CC(=O)OC(C)(C)C)c1nnc(C)n1-2
Outline: as §1

[5] = compound: c1ccc([C@@H]2C[C@H]2NC2CCNCC2)cc1
Outline: as §1

Measured: log2 fold change

MGST3 (UniProt O14880)
inactive: [1] 0.046 | [2] 0.032 | [3] 0.005 | [4] 0.006 | [5] 0.054

MED23 (UniProt Q9ULK4)
inactive: [1] -0.054 | [2] -0.003 | [3] -0.031 | [4] 0.021 | [5] -0.006

ME1 (UniProt P48163)
inactive: [1] 0.03 | [2] 0.047 | [3] -0.002 | [4] 0.017 | [5] 0.006

MFSD10 (UniProt Q14728)
inactive: [1] 0.041 | [2] -0.05 | [3] 0.131 | [4] -0.038 | [5] 0.019

MED4 (UniProt Q9NPJ6)
inactive: [1] -0.038 | [2] 0.008 | [3] 0.025 | [4] -0.071 | [5] -0.029

MCU (UniProt Q8NE86)
inactive: [1] -0.02 | [2] 0.035 | [3] 0.038 | [4] -0.018 | [5] -0.013

MED24 (UniProt O75448)
inactive: [1] 0.041 | [2] 0.026 | [3] 0.027 | [4] -0.016 | [5] 0.038

MFSD6 (UniProt Q6ZSS7)
inactive: [1] 0.008 | [2] 0.001 | [3] -0.113 | [5] -0.08

MCAM (UniProt P43121)
inactive: [1] -0.002 | [2] 0.014 | [3] 0.077 | [4] 0.005 | [5] 0.012
